# Source: the supplement of paper PMC8728848
# The list shows a part of the results.
# B1: Clec18A (Homo sapiens) (protein)
# chain: PFHTCDLRIDGDCFMVSSEADTYYRARMKCQRKGGVLAQIKRQKVQDILAFYLGRLETTNEVIDSDFETRNFWIGLTYKTAKDSFRWATGEHQAFTSFAFGQPDNHGFGNCVELQASAAFNWNDQRCKTRNRYICQ
# Experiments:
# Experiment in all cases: glycan array binding signal (z-score within array); higher = stronger binding
# Conditions in all cases: glycan notation: IUPAC condensed, linker removed
# [1] = target: Gal(b1-3)GlcNAc(b1-2)Man(a1-3)[Gal(b1-3)GlcNAc(b1-2)Man(a1-6)]Man(b1-4)GlcNAc(b1-4)[Fuc(a1-6)]GlcNAc
# In short: (§1)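 The Consortium for Functional Glycomics database supplied 3228 glycan arrays, of which those lacking an available protein sequence were dropped. The binding signal, a within-array Z-score, was averaged across arrays of the same protein sequence and across linkers. Negative scores can be read as non-binding.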
# [2] = target: Gal(b1-3)GlcNAc(b1-2)Man(a1-3)[GlcNAc(b1-4)][Gal(b1-3)GlcNAc(b1-2)Man(a1-6)]Man(b1-4)GlcNAc(b1-4)GlcNAc
# In short: as §1
# [3] = target: Gal(b1-3)GlcNAc(b1-2)[Gal(b1-3)GlcNAc(b1-6)]Man(a1-6)[Gal(b1-3)GlcNAc(b1-2)Man(a1-3)]Man(b1-4)GlcNAc(b1-4)GlcNAc
# In short: as §1
# [4] = target: Gal(b1-3)GlcNAc(b1-3)Gal(b1-3)GlcNAc
# In short: as §1
# [5] = target: Gal(b1-3)GlcNAc(b1-3)Gal(b1-4)Glc
# In short: as §1
# [6] = target: Gal(b1-3)GlcNAc(b1-3)Gal(b1-4)GlcNAc
# In short: as §1
# [7] = target: Gal(b1-3)GlcNAc(b1-3)Gal(b1-4)GlcNAc(b1-2)Man(a1-3)[Gal(b1-3)GlcNAc(b1-3)Gal(b1-4)GlcNAc(b1-2)Man(a1-6)]Man(b1-4)GlcNAc(b1-4)GlcNAc
# In short: as §1
# [8] = target: Gal(b1-3)GlcNAc(b1-3)Gal(b1-4)GlcNAc(b1-2)[Gal(b1-3)GlcNAc(b1-3)Gal(b1-4)GlcNAc(b1-6)]Man(a1-6)[Gal(b1-3)GlcNAc(b1-3)Gal(b1-4)GlcNAc(b1-2)Man(a1-3)]Man(b1-4)GlcNAc(b1-4)[Fuc(a1-6)]GlcNAc
# In short: as §1
# [9] = target: Gal(b1-3)GlcNAc(b1-3)Gal(b1-4)GlcNAc(b1-3)Gal(b1-4)GlcNAc(b1-2)[Gal(b1-3)GlcNAc(b1-3)Gal(b1-4)GlcNAc(b1-3)Gal(b1-4)GlcNAc(b1-6)]Man(a1-6)[Gal(b1-3)GlcNAc(b1-3)Gal(b1-4)GlcNAc(b1-3)Gal(b1-4)GlcNAc(b1-2)Man(a1-3)]Man(b1-4)GlcNAc(b1-4)[Fuc(a1-6)]GlcNAc
# In short: as §1
# [10] = target: Gal(b1-3)GlcNAc(b1-3)Gal(b1-4)GlcNAc(b1-6)[Gal(b1-3)GlcNAc(b1-3)]Gal(b1-4)Glc
# In short: as §1
# [11] = target: Gal(b1-3)GlcNAc(b1-3)Gal(b1-4)[Fuc(a1-3)]GlcNAc
# In short: as §1
# [12] = target: Gal(b1-3)GlcNAc(b1-3)Gal(b1-4)[Fuc(a1-3)]GlcNAc(b1-6)[Gal(b1-3)GlcNAc(b1-3)]Gal(b1-4)Glc
# In short: as §1
# [13] = target: Gal(b1-3)GlcNAc(b1-3)GalNAc
# In short: as §1
# [14] = target: Gal(b1-3)GlcNAc(b1-6)Gal(b1-4)GlcNAc
# In short: as §1
# [15] = target: Gal(b1-3)GlcNAc(b1-6)GalNAc
# In short: as §1
# [16] = target: Gal(b1-3)GlcNAc(b1-6)[Gal(b1-3)]GalNAc
# In short: as §1
# Gal(b1-3)GlcNAc6S = target: Gal(b1-3)GlcNAc6S
# In short: as §1
# [17] = target: Gal(b1-3)[Fuc(a1-4)]GlcNAc
# In short: as §1
# [18] = target: Gal(b1-3)[Fuc(a1-4)]GlcNAc(b1-2)Man
# In short: as §1
# [19] = target: Gal(b1-3)[Fuc(a1-4)]GlcNAc(b1-2)Man(a1-3)[Gal(b1-3)[Fuc(a1-4)]GlcNAc(b1-2)Man(a1-6)]Man(b1-4)GlcNAc(b1-4)[Fuc(a1-6)]GlcNAc
# In short: as §1
# [20] = target: Gal(b1-3)[Fuc(a1-4)]GlcNAc(b1-3)Gal(b1-3)[Fuc(a1-4)]GlcNAc
# In short: as §1
# [21] = target: Gal(b1-3)[Fuc(a1-4)]GlcNAc(b1-3)Gal(b1-4)[Fuc(a1-3)]GlcNAc
# In short: as §1
# [22] = target: Gal(b1-3)[Fuc(a1-4)]GlcNAc(b1-6)GalNAc
# In short: as §1
# [23] = target: Gal(b1-3)[GlcNAc(b1-6)]GalNAc
# In short: as §1
# [24] = target: Gal(b1-3)[Neu5Ac(a2-6)]GalNAc
# In short: as §1
# [25] = target: Gal(b1-3)[Neu5Ac(a2-6)]GlcNAc(b1-4)Gal(b1-4)Glc
# In short: as §1
# [26] = target: Gal(b1-3)[Neu5Ac(b2-6)]GalNAc
# In short: as §1
# Gal(b1-4)Gal = target: Gal(b1-4)Gal
# In short: as §1
# [27] = target: Gal(b1-4)GalNAc(a1-3)[Fuc(a1-2)]Gal(b1-4)GlcNAc
# In short: as §1
# [28] = target: Gal(b1-4)GalNAc(b1-3)[Fuc(a1-2)]Gal(b1-4)GlcNAc
# In short: as §1
# Gal(b1-4)Glc = target: Gal(b1-4)Glc
# In short: as §1
# Gal(b1-4)Glc6S = target: Gal(b1-4)Glc6S
# In short: as §1
# Gal(b1-4)GlcNAc = target: Gal(b1-4)GlcNAc
# In short: as §1
# [29] = target: Gal(b1-4)GlcNAc(a1-6)Gal(b1-4)GlcNAc
# In short: as §1
# Gal(b1-4)GlcNAc(b1-2)Man = target: Gal(b1-4)GlcNAc(b1-2)Man
# In short: as §1
# [30] = target: Gal(b1-4)GlcNAc(b1-2)Man(a1-3)Man(b1-4)GlcNAc(b1-4)GlcNAc
# In short: as §1
# [31] = target: Gal(b1-4)GlcNAc(b1-2)Man(a1-3)[Gal(b1-4)GlcNAc(b1-2)Man(a1-6)]Man(b1-4)GlcNAc(b1-4)GlcNAc
# In short: as §1
# [32] = target: Gal(b1-4)GlcNAc(b1-2)Man(a1-3)[Gal(b1-4)GlcNAc(b1-2)Man(a1-6)]Man(b1-4)GlcNAc(b1-4)[Fuc(a1-6)]GlcNAc
# In short: as §1
# [33] = target: Gal(b1-4)GlcNAc(b1-2)Man(a1-3)[Gal(b1-4)GlcNAc(b1-2)Man(a1-6)][Gal(b1-4)GlcNAc(b1-4)]Man(b1-4)GlcNAc(b1-4)[Fuc(a1-6)]GlcNAc
# In short: as §1
# [34] = target: Gal(b1-4)GlcNAc(b1-2)Man(a1-3)[Gal(b1-4)GlcNAc(b1-2)Man(a1-6)][GlcNAc(b1-4)]Man(b1-4)GlcNAc(b1-4)[Fuc(a1-6)]GlcNAc
# In short: as §1
# [35] = target: Gal(b1-4)GlcNAc(b1-2)Man(a1-3)[GlcNAc(b1-2)Man(a1-6)]Man(b1-4)GlcNAc(b1-4)GlcNAc
# In short: as §1
# [36] = target: Gal(b1-4)GlcNAc(b1-2)Man(a1-3)[GlcNAc(b1-4)][Gal(b1-4)GlcNAc(b1-2)Man(a1-6)]Man(b1-4)GlcNAc(b1-4)GlcNAc
# In short: as §1
# [37] = target: Gal(b1-4)GlcNAc(b1-2)Man(a1-3)[Man(a1-6)]Man(b1-4)GlcNAc(b1-4)GlcNAc
# In short: as §1
# [38] = target: Gal(b1-4)GlcNAc(b1-2)Man(a1-6)Man(b1-4)GlcNAc(b1-4)GlcNAc
# In short: as §1
# [39] = target: Gal(b1-4)GlcNAc(b1-2)Man(a1-6)[GlcNAc(b1-2)Man(a1-3)]Man(b1-4)GlcNAc(b1-4)GlcNAc
# In short: as §1
binder,measurement,setting,value
B1,glycan array binding signal (z-score),[1],-0.113
same,glycan array binding signal (z-score),[2],-0.228
same,glycan array binding signal (z-score),[3],-0.746
same,glycan array binding signal (z-score),[4],4.51
same,glycan array binding signal (z-score),[5],-0.534
same,glycan array binding signal (z-score),[6],1.26
same,glycan array binding signal (z-score),[7],0.452
same,glycan array binding signal (z-score),[8],0.598
same,glycan array binding signal (z-score),[9],-0.173
same,glycan array binding signal (z-score),[10],-0.381
same,glycan array binding signal (z-score),[11],-0.677
same,glycan array binding signal (z-score),[12],-0.023
same,glycan array binding signal (z-score),[13],-0.214
same,glycan array binding signal (z-score),[14],-0.879
same,glycan array binding signal (z-score),[15],-0.784
same,glycan array binding signal (z-score),[16],0.226
same,glycan array binding signal (z-score),Gal(b1-3)GlcNAc6S,0.315
same,glycan array binding signal (z-score),[17],2.46
same,glycan array binding signal (z-score),[18],-0.671
same,glycan array binding signal (z-score),[19],1.53
same,glycan array binding signal (z-score),[20],0.734
same,glycan array binding signal (z-score),[21],-0.574
same,glycan array binding signal (z-score),[22],1.03
same,glycan array binding signal (z-score),[23],-0.081
same,glycan array binding signal (z-score),[24],-0.604
same,glycan array binding signal (z-score),[25],2.76
same,glycan array binding signal (z-score),[26],2.64
same,glycan array binding signal (z-score),Gal(b1-4)Gal,2.6
same,glycan array binding signal (z-score),[27],-0.146
same,glycan array binding signal (z-score),[28],0.926
same,glycan array binding signal (z-score),Gal(b1-4)Glc,0.104
same,glycan array binding signal (z-score),Gal(b1-4)Glc6S,0.38
same,glycan array binding signal (z-score),Gal(b1-4)GlcNAc,-0.144
same,glycan array binding signal (z-score),[29],0.731
same,glycan array binding signal (z-score),Gal(b1-4)GlcNAc(b1-2)Man,-0.289
same,glycan array binding signal (z-score),[30],0.13
same,glycan array binding signal (z-score),[31],1.15
same,glycan array binding signal (z-score),[32],2.1
same,glycan array binding signal (z-score),[33],0.048
same,glycan array binding signal (z-score),[34],-0.18
same,glycan array binding signal (z-score),[35],0.338
same,glycan array binding signal (z-score),[36],0.196
same,glycan array binding signal (z-score),[37],1.77
same,glycan array binding signal (z-score),[38],0.546
same,glycan array binding signal (z-score),[39],-0.836
